Literature values as cited in US7018979B1, “Method for using potassium channel agonists for delivering a medicant to an abnormal brain region and/or a malignant tumor” (Cedars-Sinai Medical Center, priority 2000, dated 2006).
For at least one compound, name, drawing or mass did not settle the structure. Where a SMILES comes first, the peptide text is derived from it.

System: brain tumor capillaries
Settings: cited from earlier work

In the case of NC(N)=NCCC[C@H](NC(=O)[C@H](Cc1ccccc1)NC(=O)[C@@H]1CCCN1C(=O)[C@H](CO)NC(=O)[C@H](Cc1ccccc1)NC(=O)CNC(=O)[C@@H]1CCCN1C(=O)[C@@H]1CCCN1C(=O)[C@@H](N)CCCN=C(N)N)C(=O)O [bradykinin] (H-RPPGFSPFR-OH), the “duration of opening of the blood-tumor barrier” value (in vivo) is given as 15 to 20 min, the “time capillaries are refractory to the effect after opening” value (in vivo) is given as “up to 60 minutes” and the “increase of permeability in brain tumor and ischemic brain capillaries” value (intracarotid infusion, molecules of 100 to 70,000 Daltons) is given as 2- to 12 fold.
